PubChem BioAssay AID1487 (National Center for Advancing Translational Sciences (NCATS), 2009)
The list shows a part of the results. The main result of the screen is listed elsewhere. These columns were measured beside it and carry no call. Compounds called inactive in the main read-out are mostly missing here. Words in brackets tell the shape of the fitted curve; partial curves, single points and poor fits give uncertain potencies.

Experiment: qHTS Assay for Modulators of Lamin A Splicing
Conditions: HeLa LMNA splicing GFP/RFP minigene ratio, 48 h
How it was run: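 S3 HeLa stable clones carrying a lamin A-EGFP splicing minigene plus DsRed2 were seeded at 600 cells/well in Opti-MEM with 2% FBS, pin-dosed and incubated 48 h at 37°C. Acumen cytometry (488 nm) gave the GFP/RFP total-intensity ratio.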

[1] = measured here: RFP viability control channel
[2] = measured here: GFP splicing reporter channel

Compound | AC50 [1] | AC50 [2]
O=C(c1ccco1)N1CCN(c2ccc([N+](=O)[O-])c(N3CCOCC3)c2)CC1 | 22.4 µM [rising, partial curve] | 
C=CCn1c(C)cc(C(=O)CSc2nc3ccccc3o2)c1C | 14.1 µM [rising, partial curve] | 
Cc1cc(C(=O)OCC(=O)Nc2cc(C(F)(F)F)ccc2N2CCOCC2)c(C)o1 | 28.2 µM [rising, single point] | 35.5 µM [rising, single point]
O=S(=O)(c1ccccc1)c1nc(Nc2cccc(O)c2)sc1Cl | 12.6 µM [rising, partial curve] | 0.562 µM [rising, full curve, poor fit]
CN(c1ccccc1)S(=O)(=O)c1cccc(NC(=O)CN2CCc3ccccc3C2)c1 |  | 7.08 µM [falling, partial curve, poor fit]
Cc1cccc(N2CCN(C(=O)n3ccnc3)CC2)c1C | 35.5 µM [rising, single point] | 
CNC(=O)C1CCC(Cn2c(=O)[nH]c3ccsc3c2=O)CC1 (stereo unspecified) | 1.58 µM [falling, partial curve, poor fit] | 0.00891 µM [falling, full curve, poor fit]
CN(Cc1ccccc1)S(=O)(=O)c1ccc(NC(=S)NC(=O)C2CCCCC2)cc1 | 25.1 µM [rising, single point] | 
CN(Cc1ccccc1)c1nc(N)nc(Cl)c1C=O |  | 0.0316 µM [falling, full curve, poor fit]
CC(C)(C)c1nnc(N/N=C/c2ccc(Br)cc2)n(N)c1=O | 15.8 µM [rising, single point] | 
Cc1nc2ccc(S(=O)(=O)Nc3cccc(-c4nc5cccnc5s4)c3C)cc2s1 | 2.82 µM [rising, full curve] | 
Cc1nnc(SCC(=O)N/N=C/c2ccc(-c3ccc(C)c(Cl)c3)o2)s1 | 0.0794 µM [rising, full curve, poor fit] | 
N#Cc1c(NC(=O)CSc2nc(N)cc(=O)[nH]2)sc2c1CCCCCC2 | 2.51 µM [rising, single point] | 
N#C/C(=C\c1ccccn1)c1nc2ccccc2s1 | 3.55 µM [falling, partial curve] | 
O=C(Nc1cccnc1)c1noc2c1CCCC2 | 0.02 µM [falling, full curve, poor fit] | 
N#CC(C#N)=C1C=CC=CN1/C(=C\c1ccco1)C(=O)c1ccccc1 | 3.16 µM [falling, single point] | 3.98 µM [falling, single point]
CN1CCN(c2nc(-c3cc4ccccc4o3)cs2)CC1 | 0.355 µM [rising, full curve, poor fit] | 0.355 µM [rising, full curve, poor fit]
Cc1ccc(NS(=O)(=O)c2ccc3c(c2)NC(=O)CCS3)cc1C |  | 15.8 µM [falling, single point]
Cc1cccc(OC(=O)c2cc(-c3ccc4c(c3)OCCO4)on2)c1 | 0.0178 µM [falling, full curve] | 0.0355 µM [falling, full curve, poor fit]
Cc1ccsc1/C=N/n1c(COc2ccccc2)n[nH]c1=S | 7.08 µM [rising, partial curve] | 
Cc1c(C(=O)N2CCN(Cc3ccc4c(c3)OCO4)CC2)cccc1[N+](=O)[O-] |  | 31.6 µM [rising, single point]
CCN(CC)S(=O)(=O)c1ccc(C(=O)Nc2nc3c(Cl)cc(Cl)cc3s2)cc1 | 4.47 µM [rising, partial curve] | 3.16 µM [rising, partial curve]
O=C1CC(N2CCN(c3ccc(O)cc3)CC2)C(=O)N1Cc1cccs1 (stereo unspecified) | 14.1 µM [rising, single point] | 
Cc1cccc2cc(-c3ccccc3)c(-c3ccccc3)c[n+]12 | 7.94 µM [rising, partial curve] | 14.1 µM [rising, partial curve]
CCOc1ccc(NCc2ccccc2OCc2cccc(F)c2)cc1 | 12.6 µM [rising, single point] | 
Oc1c(CN2CCOCC2)ccc2ccccc12 | 4.47 µM [falling, partial curve, poor fit] | 35.5 µM [falling, single point]
Cc1ccc(CNC(=O)CSc2nc(=O)[nH]c3c2CCCC3)cc1 | 0.708 µM [falling, full curve, poor fit] | 

Ordered by molar mass (low to high): some entries from above
Compound | AC50 [1] | AC50 [2]
Oc1c(CN2CCOCC2)ccc2ccccc12 | 4.47 µM [falling, partial curve, poor fit] | 35.5 µM [falling, single point]
Cc1cccc(N2CCN(C(=O)n3ccnc3)CC2)c1C | 35.5 µM [rising, single point] | 
CN1CCN(c2nc(-c3cc4ccccc4o3)cs2)CC1 | 0.355 µM [rising, full curve, poor fit] | 0.355 µM [rising, full curve, poor fit]
